Data as given in PMC7862700.
The list shows a part of the results, in another mix than the full data. For part of these data: At the low end of the ranking the order means little. The list shows a part of the results. For part of these data: Construct or isoform of the protein are uncertain.

Protein sequences, listed by entry. Tags and fused reporters are not part of them. Lines headed by an entry give the natural chain unless they say otherwise; changes in a name come on top.
UniProt P32519: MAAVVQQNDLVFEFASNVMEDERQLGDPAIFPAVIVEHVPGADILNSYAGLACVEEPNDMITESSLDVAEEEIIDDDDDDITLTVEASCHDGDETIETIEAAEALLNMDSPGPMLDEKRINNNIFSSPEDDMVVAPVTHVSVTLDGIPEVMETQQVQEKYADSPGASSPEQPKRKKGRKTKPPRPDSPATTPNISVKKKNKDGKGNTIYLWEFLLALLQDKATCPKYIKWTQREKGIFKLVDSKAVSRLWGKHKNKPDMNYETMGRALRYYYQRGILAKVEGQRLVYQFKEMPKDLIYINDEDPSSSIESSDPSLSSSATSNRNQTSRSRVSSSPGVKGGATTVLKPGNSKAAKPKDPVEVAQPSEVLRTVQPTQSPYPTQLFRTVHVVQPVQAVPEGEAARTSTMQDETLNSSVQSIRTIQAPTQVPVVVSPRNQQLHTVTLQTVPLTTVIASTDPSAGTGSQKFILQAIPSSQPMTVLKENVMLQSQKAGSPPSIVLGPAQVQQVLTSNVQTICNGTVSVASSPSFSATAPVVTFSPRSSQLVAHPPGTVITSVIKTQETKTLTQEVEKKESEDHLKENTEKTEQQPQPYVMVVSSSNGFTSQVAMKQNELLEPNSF
UniProt P50549: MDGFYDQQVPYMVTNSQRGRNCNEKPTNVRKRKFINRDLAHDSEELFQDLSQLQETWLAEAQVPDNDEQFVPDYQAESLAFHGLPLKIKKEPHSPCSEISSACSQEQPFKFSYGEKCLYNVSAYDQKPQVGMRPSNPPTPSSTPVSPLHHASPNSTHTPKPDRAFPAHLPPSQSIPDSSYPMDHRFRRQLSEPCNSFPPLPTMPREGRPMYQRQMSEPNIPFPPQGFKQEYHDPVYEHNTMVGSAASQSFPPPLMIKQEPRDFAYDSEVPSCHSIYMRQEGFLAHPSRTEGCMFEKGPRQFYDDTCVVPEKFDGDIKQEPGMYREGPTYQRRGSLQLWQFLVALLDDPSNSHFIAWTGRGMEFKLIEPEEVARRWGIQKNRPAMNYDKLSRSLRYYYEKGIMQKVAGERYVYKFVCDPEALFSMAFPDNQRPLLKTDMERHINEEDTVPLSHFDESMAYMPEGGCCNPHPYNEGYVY

Key:
Assay in all cases: DAPPL (digital affinity profiling via proximity ligation, sequencing)
Conditions in all cases: 10 mM Tris-HCl pH 7.5, 50 mM NaCl, 1 mM DTT, 4% glycerol, room temperature, 30 min; GST-TFs on glutathione beads, 16-mer random dsDNA library, 0.1% …; high values mean tight binding; double strand, one strand shown; scale: fold enrichment (6-mer frequency, TF over GST control)
ERG = target: T1, ERG (UniProt P11308)
T1 sequence: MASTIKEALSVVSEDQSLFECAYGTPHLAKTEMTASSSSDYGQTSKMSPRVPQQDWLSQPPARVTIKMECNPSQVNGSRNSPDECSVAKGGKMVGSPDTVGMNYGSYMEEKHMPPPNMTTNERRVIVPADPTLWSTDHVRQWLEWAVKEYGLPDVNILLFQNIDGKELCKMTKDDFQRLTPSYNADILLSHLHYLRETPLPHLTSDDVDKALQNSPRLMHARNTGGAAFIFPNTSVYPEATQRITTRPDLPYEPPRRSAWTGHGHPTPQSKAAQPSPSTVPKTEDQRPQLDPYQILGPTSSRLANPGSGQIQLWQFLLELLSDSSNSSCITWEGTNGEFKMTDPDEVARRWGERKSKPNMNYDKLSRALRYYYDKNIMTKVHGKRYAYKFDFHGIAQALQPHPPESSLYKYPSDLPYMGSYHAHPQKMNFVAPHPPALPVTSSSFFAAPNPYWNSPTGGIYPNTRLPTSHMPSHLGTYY

ELF1 = ELF1 (UniProt P32519)
ELK4 = target: T2, ELK4 (UniProt P28324-2)
T2 sequence: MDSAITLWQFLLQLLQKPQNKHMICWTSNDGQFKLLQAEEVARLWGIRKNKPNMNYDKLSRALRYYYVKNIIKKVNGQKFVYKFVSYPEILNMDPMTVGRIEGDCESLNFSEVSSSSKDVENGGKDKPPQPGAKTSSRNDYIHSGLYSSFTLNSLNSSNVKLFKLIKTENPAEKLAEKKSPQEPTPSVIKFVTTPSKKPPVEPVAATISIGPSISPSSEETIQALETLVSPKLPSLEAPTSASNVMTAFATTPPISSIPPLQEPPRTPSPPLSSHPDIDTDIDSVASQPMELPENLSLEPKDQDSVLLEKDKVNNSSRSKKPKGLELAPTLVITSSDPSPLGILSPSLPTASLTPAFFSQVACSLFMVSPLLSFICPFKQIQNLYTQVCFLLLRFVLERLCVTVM

ETV4 = target: T3, ETV4 (UniProt P43268)
T3 sequence: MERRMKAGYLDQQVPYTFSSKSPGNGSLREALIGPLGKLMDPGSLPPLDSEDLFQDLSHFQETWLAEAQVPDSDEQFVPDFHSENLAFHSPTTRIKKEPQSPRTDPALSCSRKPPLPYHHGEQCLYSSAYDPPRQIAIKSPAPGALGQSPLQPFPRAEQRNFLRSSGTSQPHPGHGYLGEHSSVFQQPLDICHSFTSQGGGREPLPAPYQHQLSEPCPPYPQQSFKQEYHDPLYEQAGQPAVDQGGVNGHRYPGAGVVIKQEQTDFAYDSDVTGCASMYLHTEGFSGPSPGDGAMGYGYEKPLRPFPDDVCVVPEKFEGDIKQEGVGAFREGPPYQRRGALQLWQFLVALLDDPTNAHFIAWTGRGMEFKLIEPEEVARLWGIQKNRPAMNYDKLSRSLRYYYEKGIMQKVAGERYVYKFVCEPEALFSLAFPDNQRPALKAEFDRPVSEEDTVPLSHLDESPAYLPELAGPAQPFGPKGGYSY

ETV1 = ETV1 (UniProt P50549)
ERF = target: T4, ERF (UniProt P50548)
T4 sequence: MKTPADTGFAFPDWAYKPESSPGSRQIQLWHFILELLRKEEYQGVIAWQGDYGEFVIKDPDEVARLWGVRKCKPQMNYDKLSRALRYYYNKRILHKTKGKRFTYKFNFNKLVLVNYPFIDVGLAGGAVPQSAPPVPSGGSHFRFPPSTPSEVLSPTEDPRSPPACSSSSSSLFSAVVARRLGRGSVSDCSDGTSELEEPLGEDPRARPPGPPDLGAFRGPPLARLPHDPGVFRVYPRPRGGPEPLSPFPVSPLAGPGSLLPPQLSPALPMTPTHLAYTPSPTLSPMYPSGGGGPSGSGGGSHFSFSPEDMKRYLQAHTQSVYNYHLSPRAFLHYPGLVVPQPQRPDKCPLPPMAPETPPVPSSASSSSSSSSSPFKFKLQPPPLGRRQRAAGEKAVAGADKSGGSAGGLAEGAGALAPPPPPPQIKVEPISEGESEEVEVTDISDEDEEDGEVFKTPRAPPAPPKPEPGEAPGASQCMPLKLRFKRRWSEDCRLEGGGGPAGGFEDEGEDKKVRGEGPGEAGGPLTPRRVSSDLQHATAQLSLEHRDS

| Sequence | binding signal (ERG) | binding signal (ELF1) | binding signal (ELK4) | binding signal (ETV4) | binding signal (ETV1) | binding signal (ERF) |
| --- | --- | --- | --- | --- | --- | --- |
| GGACAA | 0.86 | 0.824 | 0.707 | 0.845 | 0.802 | 0.92 |
| GTGACG | 0.691 | 0.689 | 0.608 | 0.701 | 0.639 | 0.625 |
| GGTCGG | 0.298 | 0.252 | 0.267 | 0.269 | 0.25 | 0.28 |
| GTCGTC | 0.65 | 0.773 | 0.75 | 0.749 | 0.723 | 0.693 |
| CCATCG | 0.834 | 0.844 | 0.925 | 0.837 | 0.832 | 0.96 |
| AGGGAG | 0.372 | 0.353 | 0.347 | 0.327 | 0.345 | 0.316 |
| CAACGG | 0.997 | 0.987 | 1.01 | 0.969 | – | – |
| AAGGGG | 0.916 | 0.884 | 0.844 | 0.94 | – | 0.982 |
| TTGGAC | 0.957 | 0.979 | 0.873 | 0.943 | 0.957 | – |
| GACAAG | 0.773 | 0.826 | 0.687 | 0.762 | 0.76 | 0.774 |
| GGGCTG | 0.924 | 0.973 | 0.979 | 0.949 | 0.99 | – |
| GTGGAC | 0.846 | 0.947 | 0.924 | 0.91 | 0.914 | – |
| GGATGA | – | 0.931 | 0.832 | 1.02 | – | 0.937 |
| CAGTTT | 0.922 | 0.909 | 0.876 | 0.832 | 0.869 | – |
| GTGCAA | 0.963 | 0.985 | 1.05 | 0.953 | – | 0.957 |
| CCTGTC | – | 0.883 | 0.876 | 0.907 | 0.95 | 0.977 |
| GACAAA | 0.992 | 0.978 | 0.971 | 0.932 | 0.94 | – |
| CGCAGC | 0.765 | 0.83 | 0.773 | 0.76 | 0.79 | 0.821 |
| AAGACA | – | 0.984 | 0.896 | 0.953 | 0.934 | – |
| GATCCG | – | 0.968 | 1 | 0.929 | 0.896 | 0.904 |
| GGATCG | 0.611 | 0.546 | 0.611 | 0.565 | 0.659 | 0.594 |
| CGTGTT | 0.799 | 0.8 | 0.969 | 0.829 | 0.879 | 0.965 |

Whole records, quoted from the list.
GTCGTC in the list: binding signal (ERG): 0.65; binding signal (ELF1): 0.773; binding signal (ELK4): 0.75; binding signal (ETV4): 0.749; binding signal (ETV1): 0.723; binding signal (ERF): 0.693
TTGGAC in the list: binding signal (ERG): 0.957; binding signal (ELF1): 0.979; binding signal (ELK4): 0.873; binding signal (ETV4): 0.943; binding signal (ETV1): 0.957
